Data taken from PubChem BioAssay AID1053133, deposited by Broad Institute (2014).

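Vaccinia-infected cells with a two-color viral stage reporter; Venus fluorescence read on a plate reader; the cell line is not named here; timing not stated here. The test concentration is not given here. Percent change in Venus reporter signal; lower (more negative) values mean stronger inhibition of that viral stage.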

Values are in %. The controls that fix the scale are not given here. Common to all entries: measured here: Venus reporter, other viral stage. Part of the compounds only, not a random draw; the main read-out is not listed here.

* O=C(c1cccc(F)c1)N1CCCCN2[C@H](CO)[C@@H](c3ccc(/C=C/c4ccccc4)cc3)[C@@H]2C1 : activity change (Venus) -39.34%
* CCCN(C)C[C@@H]1Oc2ncc(-c3cc4ccccc4o3)cc2C(=O)N([C@H](C)CO)C[C@@H]1C : activity change (Venus) -28.88%
* CC(C)CC#Cc1ccc([C@@H]2[C@@H](CO)N3C(=O)CN(C(=O)c4cccc(F)c4)C[C@H]23)cc1 : activity change (Venus) -31.49%
* Cc1ccc(-c2ccc(C3[C@@H]4CN(C(=O)Nc5ccc(C(F)(F)F)cc5)C[C@H]3N4)cc2)cc1 (some centres unmarked) : activity change (Venus) -82.08%
* COc1ccc(CN(C)C[C@H]2OCCCC[C@@H](C)Oc3ccc(NS(=O)(=O)c4ccc(F)cc4)cc3C(=O)N([C@@H](C)CO)C[C@@H]2C)cc1 : activity change (Venus) -49.25%
* CC(C)CC#Cc1ccc([C@@H]2[C@@H](CO)N3CCCCN(C(=O)NC4CCCC4)C[C@H]23)cc1 : activity change (Venus) -57.22%
* COc1cccc(NC(=O)N(C)C[C@H]2Oc3ncc(/C=C/c4ccccc4)cc3C(=O)N([C@@H](C)CO)C[C@@H]2C)c1 : activity change (Venus) -24.33%
* COc1ccccc1-c1ccc2c(c1)O[C@@H](CN(C)S(=O)(=O)c1ccccc1)[C@H](C)CN([C@H](C)CO)S2(=O)=O : activity change (Venus) -26.79%
* Cc1ccc(S(=O)(=O)Nc2ccc3c(c2)C(=O)N([C@@H](C)CO)C[C@@H](C)[C@H](CN(C)CC2CCCCC2)OCCCC[C@H](C)O3)cc1 : activity change (Venus) -57.62%
* C[C@H]1CN([C@@H](C)CO)C(=O)c2cccc(NC(=O)NC3CCCCC3)c2O[C@@H]1CN(C)Cc1ccc(Oc2ccccc2)cc1 : activity change (Venus) -31.42%
* COc1cccc(-c2ccc3c(c2)[C@@H]2[C@@H](CCN2C(=O)c2ccc(F)cc2)[C@@H](CO)N3)c1 : activity change (Venus) -39.74%
* C[C@H]1CN([C@@H](C)CO)C(=O)Cc2cc(NC(=O)Nc3ccc(C(F)(F)F)cc3)ccc2O[C@H]1CN(C)Cc1ccc2c(c1)OCO2 : activity change (Venus) -38.98%
* O=C(Nc1cccc(F)c1)N1CCCCN2[C@H](C1)[C@@H](c1ccc(C#Cc3ccccc3)cc1)[C@@H]2CO : activity change (Venus) -32.11%
* C[C@@H]1CN([C@H](C)CO)S(=O)(=O)c2ccc(C#Cc3ccc(F)cc3)cc2O[C@@H]1CN(C)C(=O)CN(C)C : activity change (Venus) -71.93%
* [N-]=[N+]=NCc1ccccc1C[C@]1(C(=O)N2CCCCC2)N=C(c2ccc(OCCCO)cc2)O[C@H]1c1ccccc1 : activity change (Venus) -33.96%
* N#C[C@@H]1[C@H](c2ccc(C#CC3CCCC3)cc2)[C@@H](CO)N1C(=O)c1cccc(F)c1 : activity change (Venus) -32.99%
* COc1cccc(-c2ccc(C3[C@H]4CNC[C@@H]3N4Cc3ccc4c(c3)OCO4)cc2)c1 (some centres unmarked) : activity change (Venus) -49.61%
* C[C@@H]1CN([C@@H](C)CO)C(=O)c2cc(NC(=O)CCCN(C)C)ccc2O[C@@H](C)CCCCO[C@H]1CN(C)Cc1ccc(C(F)(F)F)cc1 : activity change (Venus) -61.52%
* COc1ccccc1-c1ccc2c(c1)O[C@H](CN(C)Cc1ccc3c(c1)OCO3)[C@@H](C)CN([C@H](C)CO)S2(=O)=O : activity change (Venus) -26.81%
* C[C@@H]1CN([C@@H](C)CO)C(=O)c2cc(NC(=O)Nc3ccc4c(c3)OCO4)ccc2O[C@@H]1CN(C)Cc1ccccc1 : activity change (Venus) -26.92%
* CC(C)CC#Cc1ccc2c(c1)O[C@@H](CN(C)Cc1cccc(F)c1)[C@H](C)CN([C@@H](C)CO)S2(=O)=O : activity change (Venus) -40.73%
* Cc1ccc(S(=O)(=O)N(C)C[C@H]2Oc3cc(C#CC4CCCC4)ccc3S(=O)(=O)N([C@@H](C)CO)C[C@@H]2C)cc1 : activity change (Venus) -35.73%
* COc1ccc(S(=O)(=O)N(C)C[C@H]2Oc3ncc(C#CC4(O)CCCC4)cc3C(=O)N([C@H](C)CO)C[C@@H]2C)cc1 : activity change (Venus) -26.73%
* Cc1ccc(-c2ccc3c(c2)O[C@H](CN(C)Cc2cccnc2)[C@@H](C)CN([C@@H](C)CO)S3(=O)=O)cc1 : activity change (Venus) -29.66%
* COc1ccc(NC(=O)Nc2ccc3c(c2)C(=O)N([C@@H](C)CO)C[C@@H](C)[C@H](CN(C)CC2CCCCC2)OCCCC[C@H](C)O3)cc1 : activity change (Venus) -28.43%
* Cc1ccc(S(=O)(=O)N(C)C[C@@H]2OCCCC[C@H](C)Oc3ccc(NC(=O)CCC(F)(F)F)cc3C(=O)N([C@@H](C)CO)C[C@H]2C)cc1 : activity change (Venus) -28.82%
* COc1ccc(CN(C)C[C@H]2OCCCC[C@H](C)Oc3ccc(NS(=O)(=O)c4ccc(F)cc4)cc3C(=O)N([C@@H](C)CO)C[C@@H]2C)cc1 : activity change (Venus) -32.02%
* O=C(C[C@H]1CC[C@H]2[C@@H](COC[C@@H](O)CN2Cc2ccc(Oc3ccccc3)cc2)O1)N1CCc2ccccc2C1 : activity change (Venus) -42.18%
* C[C@@H]1CN([C@@H](C)CO)C(=O)Cc2cc(NC(=O)c3ccncc3)ccc2O[C@@H]1CN(C)Cc1ccc(Cl)c(Cl)c1 : activity change (Venus) -57.74%
* C[C@@H]1CN([C@H](C)CO)C(=O)c2cccc(NC(=O)Nc3cccc4ccccc34)c2O[C@@H]1CN(C)S(=O)(=O)c1ccc(Cl)cc1 : activity change (Venus) -38.94%
* C[C@@H]1CN([C@H](C)CO)C(=O)c2cc(NC(=O)Nc3ccc(C(F)(F)F)cc3)ccc2O[C@@H]1CN(C)Cc1ccccc1 : activity change (Venus) -38.27%
* CC(C)CC#Cc1ccc([C@@H]2[C@H](CO)N3C(=O)CN(C(=O)c4cccc(F)c4)C[C@@H]23)cc1 : activity change (Venus) -25.68%
* Cc1cc(C(=O)Nc2ccc3c(c2)C(=O)N(C)[C@H]2CC[C@H](CC(=O)Nc4ccc(Cl)cc4)O[C@@H]2CO3)no1 : activity change (Venus) -25.48%

Once more, the final 4:

With C[C@@H]1CN([C@H](C)CO)C(=O)c2cccc(NC(=O)Nc3cccc4ccccc34)c2O[C@@H]1CN(C)S(=O)(=O)c1ccc(Cl)cc1 the assay gave activity change (Venus) -38.94%.
With C[C@@H]1CN([C@H](C)CO)C(=O)c2cc(NC(=O)Nc3ccc(C(F)(F)F)cc3)ccc2O[C@@H]1CN(C)Cc1ccccc1 the assay gave activity change (Venus) -38.27%.
With CC(C)CC#Cc1ccc([C@@H]2[C@H](CO)N3C(=O)CN(C(=O)c4cccc(F)c4)C[C@@H]23)cc1 the assay gave activity change (Venus) -25.68%.
With Cc1cc(C(=O)Nc2ccc3c(c2)C(=O)N(C)[C@H]2CC[C@H](CC(=O)Nc4ccc(Cl)cc4)O[C@@H]2CO3)no1 the assay gave activity change (Venus) -25.48%.